Data reported in PMC12372870.
Results are given in words; binding and its absence hold for the method and conditions named. Binding seen in cells or lysates may run through a third protein. Some binding calls cover weakened binding; strength is not graded here. Tags and fused reporters may be left off the sequences shown.

Experiments:
[1] = molecular target: T1, HA-tagged altSFPQ (alternative SFPQ isoform lacking the C-terminal nuclear localization signal) (human) (UniProt P23246); assay: co-IP; anti-HA magnetic beads on lysates of N2A cells expressing HA-SFPQ variants (empty vector as negative control), overnight at 4°C; 50 mM Hepes pH 7.4, 150 mM NaCl, 1% IGEPAL, 1 mM EDTA; Western blot; cells untreated or under sodium arsenite-induced oxidative stress
T1 sequence: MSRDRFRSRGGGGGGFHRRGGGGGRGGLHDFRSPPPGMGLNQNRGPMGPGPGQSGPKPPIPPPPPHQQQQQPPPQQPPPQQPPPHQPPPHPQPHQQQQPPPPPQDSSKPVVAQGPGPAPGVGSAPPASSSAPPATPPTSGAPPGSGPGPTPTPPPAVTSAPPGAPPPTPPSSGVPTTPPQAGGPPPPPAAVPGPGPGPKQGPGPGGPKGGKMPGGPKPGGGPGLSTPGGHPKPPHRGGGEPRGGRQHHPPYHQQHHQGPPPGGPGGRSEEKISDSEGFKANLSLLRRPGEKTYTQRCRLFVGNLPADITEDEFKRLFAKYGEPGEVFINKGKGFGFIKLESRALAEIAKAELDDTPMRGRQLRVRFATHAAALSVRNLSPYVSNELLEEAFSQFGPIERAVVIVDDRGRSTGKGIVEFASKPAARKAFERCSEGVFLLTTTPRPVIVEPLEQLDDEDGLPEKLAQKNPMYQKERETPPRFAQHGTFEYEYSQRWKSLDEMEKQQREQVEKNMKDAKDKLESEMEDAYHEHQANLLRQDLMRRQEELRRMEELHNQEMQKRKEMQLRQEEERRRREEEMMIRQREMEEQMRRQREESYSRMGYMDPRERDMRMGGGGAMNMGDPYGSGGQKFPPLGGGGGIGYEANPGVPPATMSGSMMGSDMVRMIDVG

[2] = molecular target: T2, HA-tagged wtSFPQ (splicing factor proline- and glutamine-rich, canonical isoform) (human) (UniProt P23246); assay: as above
T2 sequence: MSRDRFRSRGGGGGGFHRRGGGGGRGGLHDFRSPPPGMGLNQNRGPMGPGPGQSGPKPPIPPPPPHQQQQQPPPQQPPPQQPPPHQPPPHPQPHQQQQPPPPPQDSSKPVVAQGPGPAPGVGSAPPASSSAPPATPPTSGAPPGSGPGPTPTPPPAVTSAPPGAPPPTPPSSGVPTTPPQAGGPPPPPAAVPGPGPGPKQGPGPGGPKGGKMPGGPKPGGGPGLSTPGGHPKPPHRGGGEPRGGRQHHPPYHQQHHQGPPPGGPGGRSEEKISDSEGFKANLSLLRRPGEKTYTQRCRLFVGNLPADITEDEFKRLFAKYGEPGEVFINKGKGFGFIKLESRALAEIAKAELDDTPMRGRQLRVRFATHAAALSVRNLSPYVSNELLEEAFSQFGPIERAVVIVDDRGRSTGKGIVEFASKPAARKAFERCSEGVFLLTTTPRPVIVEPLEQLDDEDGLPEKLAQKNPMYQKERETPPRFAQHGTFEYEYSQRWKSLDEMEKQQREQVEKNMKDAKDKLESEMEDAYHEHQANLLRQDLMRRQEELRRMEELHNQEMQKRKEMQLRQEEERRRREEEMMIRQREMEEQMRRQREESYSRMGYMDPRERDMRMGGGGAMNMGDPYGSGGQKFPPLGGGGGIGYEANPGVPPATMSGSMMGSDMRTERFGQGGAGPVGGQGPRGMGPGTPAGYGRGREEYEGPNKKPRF

binding [1]: binds | binding [2]: binds
B1: NONO (protein, UniProt Q99K48 1-473)
chain: MQSNKAFNLEKQNHTPRKHHQHHHQQHHQQQQQQQQQQPPPPIPANGQQASSQNEGLTIDLKNFRKPGEKTFTQRSRLFVGNLPPDITEEEMRKLFEKYGKAGEVFIHKDKGFGFIRLETRTLAEIAKVELDNMPLRGKQLRVRFACHSASLTVRNLPQYVSNELLEEAFSVFGQVERAVVIVDDRGRPSGKGIVEFSGKPAARKALDRCSEGSFLLTTFPRPVTVEPMDQLDDEEGLPEKLVIKNQQFHKEREQPPRFAQPGSFEYEYAMRWKALIEMEKQQQDQVDRNIKEAREKLEMEMEAARHEHQVMLMRQDLMRRQEELRRMEELHNQEVQKRKQLELRQEEERRRREEEMRRQQEEMMRRQQEGFKGTFPDAREQEIRMGQMAMGGAMGINNRGAMPPAPVPPGTPAPPGPATMMPDGTLGLTPPTTERFGQAATMEGIGAIGGTPPAFNRPAPGAEFAPNKRRRY
